In this test the target is T1, proton-coupled peptide transporter (Oryctolagus cuniculus, UniProt P36836).
T1 construct: Xenopus laevis oocytes were injected with cRNA coding the proton-coupled peptide transporter; expressed in transfected cells; host or cells: Xenopus laevis oocytes injected with cRNA transcribed in vitro from the cloned cDNA
T1 sequence (P36836 1-707): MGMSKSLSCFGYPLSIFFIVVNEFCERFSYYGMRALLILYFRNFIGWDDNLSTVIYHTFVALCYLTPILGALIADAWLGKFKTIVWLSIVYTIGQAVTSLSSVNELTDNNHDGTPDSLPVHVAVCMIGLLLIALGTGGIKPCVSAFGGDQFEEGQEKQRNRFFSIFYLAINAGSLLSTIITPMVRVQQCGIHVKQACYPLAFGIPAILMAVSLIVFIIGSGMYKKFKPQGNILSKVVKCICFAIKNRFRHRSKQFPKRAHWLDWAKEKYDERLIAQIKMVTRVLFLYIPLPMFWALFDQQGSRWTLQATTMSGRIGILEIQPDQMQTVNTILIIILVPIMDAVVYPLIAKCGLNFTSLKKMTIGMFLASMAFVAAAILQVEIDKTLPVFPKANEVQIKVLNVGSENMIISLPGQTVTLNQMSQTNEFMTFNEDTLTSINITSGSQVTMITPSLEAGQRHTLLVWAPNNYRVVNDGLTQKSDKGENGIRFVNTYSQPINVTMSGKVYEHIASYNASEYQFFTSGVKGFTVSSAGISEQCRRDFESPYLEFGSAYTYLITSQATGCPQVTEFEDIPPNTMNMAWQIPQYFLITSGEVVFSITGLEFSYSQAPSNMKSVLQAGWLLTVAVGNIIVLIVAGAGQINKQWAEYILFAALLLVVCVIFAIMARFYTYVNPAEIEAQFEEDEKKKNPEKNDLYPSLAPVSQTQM
In words: Two-electrode voltage clamp of Xenopus laevis oocytes injected with transporter cRNA: substrate-evoked inward currents and Km. Format: cell-based, rabbit. To be noted: uptake solution pH 5.5. The source says:
These oocytes were subjected to two electrode voltages clamp analysis (Gene Clamp 500, Axon Instruments, California) in the manner described in Kanaisy & Hediger, M. A. Nature 360, 467-71 (1992).
FIG. 9 depicts electrophysiological measurements of transformed cocytes as a percent of glycyl-sarcosine evoked current. Data representing glycyl-sarcosine are depicted as a solid black bar. Data representing peptide are depicted with dotted bars. Data representing antibiotics are depicted with hatched bars.
By altering peptide concentrations, current amplitudes for different compositions, Km values were determined.
On the technique in general: In two-electrode clamp one electrode senses voltage and the other passes current.

Entries after “also recorded” stand apart in the source; their conditions may differ.

`CC1=C(C(=O)O)N2C(=O)[C@@H](NC(=O)[C@H](N)c3ccccc3)[C@H]2SC1` [Cephalexin]: the substrate-evoked inward current entry is “Significant currents; also recorded: weakest current”.
